Assay results: PubChem BioAssay AID2551 (National Center for Advancing Translational Sciences (NCATS), 2010)
Where “and” joins values, the source holds several entries; their conditions need not be identical. Identical values can stand only once. Out of some 310,000 compounds screened, about 17,000 (5.5%) were called active. Inconclusive means that the source gave no clear call. Such entries were picked first, then a sample of the others. Calls come from the whole dose curve; as a rule, active = well fitted inhibition curve with a large enough effect; inconclusive = small, poorly fitted or top-dose-only effect, or effect the other way; inactive = no such curve, though single readings can be large or run the other way. Where the call is inconclusive, the potency comes from a doubtful curve fit.

Amino acid sequences for entries named in this document (tags omitted). A change or cut given only in a name is not applied to a line headed by its entry.
UniProt P51450: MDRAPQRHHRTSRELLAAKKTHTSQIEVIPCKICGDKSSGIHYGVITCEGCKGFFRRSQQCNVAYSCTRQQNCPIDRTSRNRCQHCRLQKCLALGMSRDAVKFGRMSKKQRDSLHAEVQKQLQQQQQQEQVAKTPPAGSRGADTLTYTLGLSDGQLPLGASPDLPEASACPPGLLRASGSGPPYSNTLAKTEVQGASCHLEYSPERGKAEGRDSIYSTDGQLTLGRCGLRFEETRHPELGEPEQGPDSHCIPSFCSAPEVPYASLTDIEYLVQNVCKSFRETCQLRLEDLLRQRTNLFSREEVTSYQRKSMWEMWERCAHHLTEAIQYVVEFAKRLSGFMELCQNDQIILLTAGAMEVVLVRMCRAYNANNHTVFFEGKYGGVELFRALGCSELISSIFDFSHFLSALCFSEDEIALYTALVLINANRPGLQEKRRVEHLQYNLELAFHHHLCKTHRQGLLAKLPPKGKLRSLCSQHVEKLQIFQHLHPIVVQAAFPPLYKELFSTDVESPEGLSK

Target: Nuclear receptor ROR-gamma (Mus musculus) (UniProt P51450)
Experiment: qHTS for inhibitors of ROR gamma transcriptional activity; note: nearly all actives have a fitted effect of over 60% in size
Settings: Drosophila S2 Gal4-RORgamma UAS-luciferase reporter, 20 h; activity change, negative = inhibition: at 53.6 µM (top of the series)
How it was run: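 Stable Schneider cell line, Gal4 DNA-binding domain fused to ROR gamma, UAS-luciferase. Cmpd 1 hr RT → CuSO4 700 uM final → 20 hr RT → luciferase reagent 10 min → luminescence.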
% is set by controls: 0 for no effect and ±100 for the full control effect; potency is the fitted concentration of half-maximal effect.

Activity change, negative = inhibition, inactive:
COc1ccc(S(=O)(=O)N2CCN(c3ccccn3)CC2)c(OC)c1 13.9%
N#Cc1ccccc1/C=N/Nc1nc(-c2ccccc2)c2cc(Cl)ccc2n1 -29.8%
CCC1=C2CC[C@H]3C(=O)N(CC)C(=O)[C@H]3[C@H]2[C@@]2(Cc3ccccc3)C(=NCC3CC3)OC(=O)N2C1=O 4.91%
COc1ccc([C@H]2C=C3CN(C(=O)OC(C)(C)C)S(=O)(=O)[C@H]3C[C@H]2OC(=O)c2cccs2)cc1 -11.6%
CC1=NN(C(C#N)c2ccccc2C)C(C)(C)C1 (stereo unspecified) 7.92%
CCOc1cc(C)c(Cl)cc1S(=O)(=O)NCc1ccco1 7.75%
CCCCCCc1cc2cc(C(N)=O)c(=N)oc2cc1O 2.03%
Cc1noc(C)c1COc1ccc(C(=O)OCC(=O)NC2CCCCC2C)cc1 (stereo unspecified) 31.4%
CCC(C)(C)n1nnnc1C(c1cccs1)N1CCCCC1 (stereo unspecified) -33.5%
O=C(CN1CCOCC1)NNC(=S)Nc1ccc(Cl)cc1 -34.5%
CCOC(=O)C1(Cc2ccccc2C)CCCN(C(=O)CCn2nccc2C)C1 (stereo unspecified) -7.44%
COc1cc(-n2c(=O)c3ccccc3n(Cc3cc(=O)n4ccccc4n3)c2=O)cc(OC)c1OC 23.3%
O=C(CNC(=O)c1cccs1)N/N=C/c1ccc(O)cc1O 33.5%
Cn1c(CNC(=O)c2ccc3c(c2)OCO3)nnc1SCC(=O)Nc1ccc(F)cc1 0.0094%
Cn1c(N)c(C(=O)CCl)c(=O)n(C)c1=O -9.66%
CCc1ccc(/C([O-])=C(/C(=S)NCCN2CCOCC2)[n+]2ccccc2)cc1 -3.83%
CCOC(=O)N1CCc2c(sc3c2C(=O)NC(c2ccccc2)N3)C1 (stereo unspecified) 31.2%

Potency, inconclusive:
O=C(NCc1ccccc1Cl)c1cnc2ccccc2n1 35.5 µM [activator, single point]
O=C(c1cc(Cl)cc(Cl)c1)N1CCC(=O)N(C(COCc2ccccc2)Cc2ccccc2)CC1 (stereo unspecified) 31.6 µM [activator, single point]
Cc1ccc(Cn2cnc3ccccc32)cc1 15.8 µM [inhibitor, single point]
CC(C)(C)c1ccc(OCC(=O)N/N=C/c2ccsc2)cc1 8.91 µM [activator, partial curve, poor fit]
CCCN1CNC(=S)N(CC2CCCO2)C1 (stereo unspecified) 17.8 µM [inhibitor, single point]
CCN(CC)S(=O)(=O)c1cccc(C(=O)Nc2ccc(Cl)cn2)c1 10 µM [activator, partial curve]
N#Cc1ccc(NC(=O)c2nc(-c3ccccc3)n(-c3ccccc3)n2)cc1 0.794 µM [activator, single point]
Cc1ccc(C(=O)O)cc1NC(=S)NC(=O)c1ccc(COc2ccccc2)cc1 14.1 µM [activator, single point]
CCCCNc1ccc(C(=O)Nc2cccc(C)n2)cc1[N+](=O)[O-] 7.08 µM [activator, full curve, poor fit]
O=C(COC(=O)Cc1cccc(C(F)(F)F)c1)Nc1ccccc1 10 µM [activator, partial curve]
CC1=NN(c2ccc(C)cc2)C(=O)/C1=C\C=C\c1ccccc1 12.6 µM [inhibitor, single point]
O=C(Nc1cc(S(=O)(=O)N2CCCCCC2)ccc1OCC(F)(F)F)C1CCC1 14.1 µM [inhibitor, single point]
CCCC[C@@H]1C[C@H]1C(NC(=O)c1cccnc1)c1ccc(Cl)cc1 (stereo partly specified) 35.5 µM [inhibitor, single point]
O=C(Nc1ccc(F)cc1)C1CC2CCC1C2 (stereo unspecified) 3.16 µM [activator, single point]
CC(C)C(C)NC(=O)COc1ccc(-c2ccccc2)cc1 (stereo unspecified) 15.8 µM [activator, single point]
CC(C)c1nnc(NC(=O)CN2C(=O)c3ccccc3C2=O)s1 2.24 µM [inhibitor, partial curve]
CN(Cc1ncc[nH]1)C(=O)c1cc(COc2c(F)cccc2F)on1 11.2 µM [activator, partial curve, poor fit]
CCC(c1nnnn1CCc1ccccc1)N1CCN(C(=O)c2ccco2)CC1 (stereo unspecified) 5.01 µM [activator, single point]
COc1ccc(CNc2nc(-c3cccc(C#N)c3)nc3ccccc23)c(OC)c1 35.5 µM [inhibitor, single point]
C=CCN(c1ccc(C(=O)Nc2cc(C)cc(C)c2)cc1)S(C)(=O)=O 8.91 µM [activator, partial curve]
COc1ccc(Cl)cc1Nc1nc(-c2sc(NC(=O)C(C)(C)C)nc2C)cs1 17.8 µM [inhibitor, single point]
O=C(CN1C(=O)/C(=C/c2ccccc2F)Sc2ccccc21)NCc1cccnc1 35.5 µM [activator, single point]
Cc1[nH]c2ccccc2c1/C=N/NS(=O)(=O)c1ccccc1 35.5 µM [activator, single point]
COC(=O)Cc1ccc(NC(=S)NCc2ccc(OC)cc2)cc1 14.1 µM [inhibitor, single point]
O=C(COc1ccc(Cl)cc1Br)Nc1ccncc1 17.8 µM [activator, partial curve]
O=C(OCC(=O)N1c2ccccc2Sc2ccccc21)C1CC(=O)N(Cc2ccco2)C1 (stereo unspecified) 35.5 µM [activator, single point]
Cc1ccc(C)c(OCC(=O)Nc2nc3ccc([N+](=O)[O-])cc3s2)c1C 35.5 µM [inhibitor, single point]
Clc1ccc(C2=CSC3=NCCN23)cc1Cl 12.6 µM [inhibitor, single point]
COc1ccccc1NC(=O)CSc1nc2sc(C)c(C)c2c(=O)n1C 17.8 µM [activator, single point]
Cc1oc(C(C)(C)C)cc1-c1cc(NC(=O)c2ccc([N+](=O)[O-])cc2)n[nH]1 2.82 µM [inhibitor, partial curve]
COc1ccccc1CNC(=O)c1ccccc1N 35.5 µM [activator, single point]
CN(C1CCCCC1)S(=O)(=O)c1ccc2[nH]c(=O)oc2c1 22.4 µM [inhibitor, single point]
CCN(CC)S(=O)(=O)c1cccc(-c2nnc(SCc3ncc(-c4ccccc4)o3)n2C)c1 6.31 µM [activator, full curve, poor fit]
COc1cc2c(cc1OC)C(c1cc3cc(OC)c(OC)cc3[nH]c1=O)N(C(=O)C1CC1)CC2 (stereo unspecified) 11.2 µM [inhibitor, partial curve]
CC(=O)Nc1nc(C)c(-c2csc(Nc3ccccn3)n2)s1 3.55 µM [activator, full curve] and 11.2 µM [activator, partial curve]
COc1cc2cc(C)nc(Cc3cccc4ccccc34)c2cc1OC 14.1 µM [inhibitor, partial curve]
c1ccc(CNc2nnnn2-c2ccccc2)cc1 20 µM [activator, single point]
CC(C)C(=O)Nc1ccc(Nc2ccccc2)cc1 12.6 µM [activator, single point]
CCOc1ccc(-n2c(C)nc3cc(C(=O)NCCN4CCOCC4)ccc32)cc1 12.6 µM [activator, single point]
CCOc1cc(CNCC(O)c2ccccc2)cc(Cl)c1OC (stereo unspecified) 35.5 µM [activator, single point]
CN(CC(=O)O)Cc1nc2ccccc2[nH]1 12.6 µM [activator, single point]
O=C(Nc1ccc2nn(-c3ccccc3)nc2c1)c1ccc2c(c1)OCO2 35.5 µM [inhibitor, single point]
CC(=O)Nc1cccc(Oc2ncnc3scc(-c4ccccc4)c23)c1 31.6 µM [activator, single point]
COc1ccc(S(=O)(=O)Nc2ccc(S(=O)(=O)N3CCCCC3)cc2)cc1C 35.5 µM [activator, single point]

Potency, active:
CC(C)(C)c1cc[n+](C2=C([O-])c3ccccc3C(=O)/C2=N\S(=O)(=O)c2ccccc2)cc1 5.62 µM
CCOC(=O)C1=C(C)NC(=S)NC1/C=C/c1ccccc1 (stereo unspecified) 1.78 µM
Cc1cccc(OCC(=O)NNc2c3ccccc3nc3ccccc23)c1 3.55 µM
O=C(COc1ccc2oc(-c3ccccc3)cc(=O)c2c1)Nc1ccccc1 12.6 µM
Cc1ccccc1S(=O)(=O)Oc1cccc2c(O)cccc12 7.08 µM
O=C(COc1ccccc1)OC(C(=O)c1ccccc1)c1ccccc1 (stereo unspecified) 11.2 µM
Cc1ccc(C(=O)Nc2nnc(NC(=S)Nc3ccccc3)s2)cc1 0.282 µM
Cc1ccnc(NC(=O)CCNS(=O)(=O)c2ccc(C)c(C)c2)c1 10 µM
Cc1onc(-c2ccccc2)c1C(=O)N/N=C/c1cn(C)c2ccccc12 11.2 µM
CCCCNC(=O)CNC(=S)N(Cc1ccccc1F)C1CCCCC1 12.6 µM
